According to patent US20260209365A1, “ANTI-COMMON GAMMA CHAIN PROTEINS AND COMPOSITIONS OF MATTER” (SINOMAB BIOSCIENCE LIMITED, priority 2023, published 2026):
These are yes or no findings as the source states them, for the method shown. Some results given as binding are weak or reduced against the parent protein; the word gives no strength.

Tests used:
[1] = molecular target: T1, common marmoset γc protein, full length, on HEK-293 cells (common marmoset) (UniProt A5HJL6); experiment: flow cytometry, FITC-conjugated hSM-05A on transfected HEK-293 cells
T1 sequence: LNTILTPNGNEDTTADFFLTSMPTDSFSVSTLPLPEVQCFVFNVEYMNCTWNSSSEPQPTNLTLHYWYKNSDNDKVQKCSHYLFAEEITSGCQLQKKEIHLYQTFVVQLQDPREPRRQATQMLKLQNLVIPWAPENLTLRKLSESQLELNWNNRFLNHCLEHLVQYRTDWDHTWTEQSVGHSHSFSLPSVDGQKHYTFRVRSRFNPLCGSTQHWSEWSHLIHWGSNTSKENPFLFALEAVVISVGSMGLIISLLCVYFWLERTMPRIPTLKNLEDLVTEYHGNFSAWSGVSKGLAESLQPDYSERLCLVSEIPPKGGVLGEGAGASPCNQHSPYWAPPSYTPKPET

[2] = molecular target: T1, common marmoset γc protein, full length, on HEK-293 cells (common marmoset); experiment: flow cytometry, FITC-labelled hSM-05A (33 nM) on transfected HEK-293 cells
[3] = molecular target: T1, common marmoset γc protein, full length, on HEK-293 cells (common marmoset); experiment: flow cytometry, FITC-hSM-05A at 33 nM (5 µg/ml) on HEK-293 cells transfected with full-length common marmoset γc, N=3

- binding [1]: binds
- binding [2]: binds
- binding [3]: binds
B1: hSM-05A, humanized anti-γc antibody with back-mutation (antibody, V domains shown)
VH: QVQLVQSGAEVLKPGASVKVSCKASGYTFTEYTMHWVKQARGQRLEWIGGIDPYNGGATYNQRFKGKATLTTDTSTSTAYMELRNLRSDDTAVYYCARRRLYYGNALDYWGQGTLVTVSS
VL: DIVMTQSPLSLPVTPGEQASISCRSSQSLVHSNGNTYLHWYLQKPGQSPQLLIYKVSSRFSGVPDRFSGSGSGTDFTLKISRVEAEDVGVYFCSQTTHVPFTFGSGTKLEIKR
